# Source: the supplement of paper PMC3334620
# The full ranking holds about 33,000 sequences; the median of “E-score (-0.5 to 0.5)” is about -0.015, and the highest 2% start at about 0.3. This is one part of the list.
# Biological target: T1, Abf1 (UniProt P14164)
# T1 sequence: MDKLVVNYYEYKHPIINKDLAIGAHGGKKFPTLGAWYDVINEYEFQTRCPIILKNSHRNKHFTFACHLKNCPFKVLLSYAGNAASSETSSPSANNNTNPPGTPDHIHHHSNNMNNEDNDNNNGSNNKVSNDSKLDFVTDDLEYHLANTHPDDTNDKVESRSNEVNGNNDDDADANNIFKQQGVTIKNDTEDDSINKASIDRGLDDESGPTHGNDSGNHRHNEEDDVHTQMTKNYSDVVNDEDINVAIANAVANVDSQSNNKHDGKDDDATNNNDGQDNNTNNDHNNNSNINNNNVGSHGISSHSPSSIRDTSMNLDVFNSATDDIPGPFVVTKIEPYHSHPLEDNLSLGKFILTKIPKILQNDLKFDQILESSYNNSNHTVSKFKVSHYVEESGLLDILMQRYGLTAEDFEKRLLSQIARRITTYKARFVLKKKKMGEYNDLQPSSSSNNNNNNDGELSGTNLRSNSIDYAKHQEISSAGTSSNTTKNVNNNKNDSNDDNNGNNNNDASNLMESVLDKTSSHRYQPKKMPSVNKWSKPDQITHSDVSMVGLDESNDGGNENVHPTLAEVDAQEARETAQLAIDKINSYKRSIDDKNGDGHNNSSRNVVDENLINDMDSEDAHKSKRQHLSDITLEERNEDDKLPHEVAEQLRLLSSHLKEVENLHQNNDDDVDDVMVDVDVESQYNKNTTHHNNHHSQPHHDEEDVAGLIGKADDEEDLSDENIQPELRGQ
# Test: PBM E-score (8-mer binding enrichment) (E-score (-0.5 to 0.5)); higher = stronger / more preferred TF binding
# Details: protein concentration: 200 nM; construct: GST-full length
# Outline: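 Detection of bound protein used fluorescent anti-GST, with scans normalised by masliner. The proteins were GST-tagged yeast transcription factors applied at about 100-200 nM to universal all-10-mer Agilent arrays made double-stranded by primer extension. Each ungapped eight-base word, pooled with its reverse complement, was scored with an E-score from the Universal PBM Analysis Suite.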
row,Sequence,PBM E-score
1,ACATACCT,-0.0525
2,GCGATTCC,0.0129
3,AAATTTGA,0.0283
4,CTTACAAG,-0.0672
5,AGGAGGTC,-0.127
6,CAGCCCAG,-0.296
7,AACGCTCT,-0.051
8,CCCCGTTA,-0.0607
9,AACTACGG,0.148
10,CGATCTTC,0.00974
11,AGATGGTC,-0.177
12,CAGAGTCA,-0.251
13,TATTCCCA,-0.0277
14,TATAGGGA,-0.0594
15,CGGATCCG,-0.0523
16,GGCCCTAA,-0.0593
17,CTAGTCAG,0.0253
18,GCCGCGGA,0.0077
19,AGCCGTTA,0.117
20,GCGGGTCA,-0.032
21,CGGGCAGC,-0.179
22,CACCCGCG,-0.134
23,GAGACTAA,0.056
24,AATGCGAC,0.0345

row,Sequence,PBM E-score
1,CACGGGAC,0.221
2,GCCCAAGC,-0.189
3,AAAACTTG,0.0211
4,GGTCGCCA,-0.074
5,GCTTGGAC,-0.128
6,AGTAGCGC,0.0139
7,GCAGCCGC,-0.166
8,CTAAATTA,0.0644
9,ATTAACCC,-0.086
10,ACTAGTGA,0.182
11,TAGAATCA,-0.0486
12,CGGGCCAC,-0.107
13,CCATCCTA,0.0483
14,CCCATGTC,0.126
15,CTCCCTTA,-0.165
16,TCGAAAGA,0.125
17,CCCAATGA,-0.00969
18,AAGGTGCT,-0.17
19,GACTAGGC,0.0619
20,CTAAGCAC,-0.0293
21,CATCACGG,0.213
22,ACGCGTAG,0.00468
23,CTCCATCC,-0.203
24,AACAACCA,0.161

row,Sequence,PBM E-score
1,GGTATGGA,-0.0697
2,AACTGACC,-0.283
3,CGATGTAA,0.00226
4,ATACAAGA,-0.0309
5,GGATCTAC,-0.0102
6,CGATATCC,0.17
7,AATGAGCG,0.0583
8,GCTTAAAA,0.0895
9,CATTTCCA,0.0465
10,ATACTGCC,0.0565
11,CGTATAAC,0.366
12,ACGGCGTC,0.205
13,AATTGGTG,0.0554
14,GCGTCCAC,-0.161
15,GTCAGGAA,-0.0436
16,CCACCTTA,-0.09
17,CAGTGTCC,-0.0745
18,ACGCTGAT,0.0221
19,AACCGGCT,-0.103
20,GTAAAATA,0.0529
21,ATAGCTTG,0.00747
22,ATAATAAG,0.154
23,TAGTAAGA,0.165
24,CTCGCCCC,-0.161

row,Sequence,PBM E-score
1,CAACACCC,-0.197
2,GTGTTGTA,0.0206
3,AGGCTAAC,-0.0365
4,CGGCGGTC,-0.0753
5,CCTCACTC,0.0309
6,GGACATAA,-0.032
7,AGCACCCC,-0.142
8,CTCCAGAA,-0.238
9,ACATCTAT,0.192
10,AACAAGTC,-0.0075
11,AAGACATA,0.103
12,CTCGGGGA,-0.165
13,ATGGGGCA,-0.356
14,CAACTGAA,-0.133
15,GGAGATCA,0.215
16,ACCCAGGC,-0.0904
17,CCGCCGAA,-0.0792
18,CTCGCAAG,0.0363
19,AGTATTAA,0.174
20,GTGAGTTA,0.21
21,AGTGATGA,0.366
22,CGCGGGAA,-0.0427
23,AGGTAGAA,-0.178
24,AAAAGGGC,-0.116

row,Sequence,PBM E-score
1,GCACGGAA,0.0639
2,GCGCATCA,0.0556
3,CGAGTTGA,0.00274
4,AGCTGCTC,-0.148
5,GGGACTAA,-0.0888
6,AAAGGTGC,-0.0948
7,GGTAGGCA,-0.116
8,CACGCAAA,-0.194
9,AATTTCCA,0.0126
10,CAGCTTAC,0.0244
11,AAGTCCAA,-0.0248
12,ATCGTACC,0.0609
13,CGTCGGAC,0.173
14,AAGCGACC,0.0888
15,TACAGGGA,-0.19
16,AATGGCAT,0.139
17,AATACTGA,-0.153
18,GGAGGACA,-0.171
19,ATGCTTCA,0.0865
20,GGGGGCTA,-0.389
21,AGAACTGG,-0.111
22,AACGACCA,0.128
23,GGACCAGA,-0.0791
24,GAAACAAC,0.0849

row,Sequence,PBM E-score
1,ACTTTCTA,0.185
2,CGAGCTGC,-0.131
3,TAAGACCA,-0.212
4,ACATACGG,0.3
5,CTCCACCA,-0.188
6,GGTCTAAA,-0.0643
7,AATTGATC,0.11
8,AGTGAGAT,0.147
9,AGTCCCCG,-0.265
10,GCCCACTA,-0.0762
11,AGCCTATA,0.0287
12,CATAAGGG,-0.0557
13,GAAACACC,0.0634
14,CCGCTGGC,-0.16
15,CGGGTATA,0.00121
16,AGAGCACT,0.0808
17,AGGGTCGG,-0.132
18,CGCAAGTC,-0.259
19,AGTGTATC,-0.0403
20,CCCTTGCG,-0.24
21,ATGCGTAA,0.195
22,TATACCCA,-0.0552
23,AAAAGTTC,0.00896
24,ATTTTCTA,0.259

row,Sequence,PBM E-score
1,GGTACCAA,-0.0799
2,AAACTCTG,-0.0777
3,CGGGCACC,-0.0646
4,AGAGGCGG,-0.215
5,ATGACCGA,0.0406
6,CTACCCGA,-0.114
7,CGTACTAG,0.267
8,GGACCTTA,-0.131
9,CCCTAGGC,-0.176
10,TAGTGAAA,-0.0802
11,CCCAGCCG,0.0358
12,GTACTTTA,0.0775
13,CTGCAACC,-0.157
14,AACTGATA,0.0891
15,CATTTGAA,0.00275
16,CTCTCCGC,-0.116
17,CACTGTCC,0.125
18,GCCGAGCC,-0.263
19,ACACTCGA,-0.0221
20,CGTGCTGC,0.134
21,GTTAGTTA,0.175
22,AATAGATG,0.142

# Rewritten tab-delimited: entries from further up
row	Sequence	PBM E-score
16	AATGGCAT	0.139
17	AATACTGA	-0.153
18	GGAGGACA	-0.171
19	ATGCTTCA	0.0865
20	GGGGGCTA	-0.389
21	AGAACTGG	-0.111
22	AACGACCA	0.128
23	GGACCAGA	-0.0791
24	GAAACAAC	0.0849
1	ACTTTCTA	0.185
2	CGAGCTGC	-0.131
3	TAAGACCA	-0.212
4	ACATACGG	0.3
5	CTCCACCA	-0.188
6	GGTCTAAA	-0.0643
8	AGTGAGAT	0.147
10	GCCCACTA	-0.0762
11	AGCCTATA	0.0287
12	CATAAGGG	-0.0557
13	GAAACACC	0.0634
14	CCGCTGGC	-0.16
15	CGGGTATA	0.00121
16	AGAGCACT	0.0808
17	AGGGTCGG	-0.132
18	CGCAAGTC	-0.259
19	AGTGTATC	-0.0403
20	CCCTTGCG	-0.24
21	ATGCGTAA	0.195
22	TATACCCA	-0.0552
23	AAAAGTTC	0.00896
24	ATTTTCTA	0.259
1	GGTACCAA	-0.0799
2	AAACTCTG	-0.0777
3	CGGGCACC	-0.0646
4	AGAGGCGG	-0.215
5	ATGACCGA	0.0406
6	CTACCCGA	-0.114
7	CGTACTAG	0.267
8	GGACCTTA	-0.131
9	CCCTAGGC	-0.176
10	TAGTGAAA	-0.0802
11	CCCAGCCG	0.0358
12	GTACTTTA	0.0775
13	CTGCAACC	-0.157
14	AACTGATA	0.0891
15	CATTTGAA	0.00275
16	CTCTCCGC	-0.116
17	CACTGTCC	0.125
18	GCCGAGCC	-0.263
19	ACACTCGA	-0.0221
20	CGTGCTGC	0.134
21	GTTAGTTA	0.175
